{
  "source": "patent EP0155486A1",
  "about": "“1,3,5-Trisubstituted 1,2,4-triazole derivatives, process for their preparation and medicinal preparations containing them” (priority 1984, dated 1985)",
  "key": {"[1]": {"system": "männlichen Ratten der Art Long Evans", "format": "in vivo", "conditions": "ratio of peroral LD50 to peroral ED50, rats", "method": "Die Untersuchung der therapeutischen Wirkung der erfindungsgemäßen 1,2,4-Triazolderivate wurde mittels des modifizierten Newbould-Prüfversuches (Brit. J. Pharmacol., 21 [1963], Seite 127) durchgeführt. Dazu wurde in die rechen Hinterfüße von männlichen Ratten der Art Long Evans mit Gewichten von 180 bis 250 g intraplantar […] abgetötetes Mycobacterium tuberculosis in einem Volumen von 0,1 ml injiziert. Nachfolgend wurden die Ratten pro betreffenden Tag mit einer Dosis der zu untersuchenden Verbindung insgesamt 16-mal während 3 Wochen behandelt. Die Änderung des Volumens der Fußschwellung wurde 21 Tage lang täglich mit einem Quecksilber-Plethysmometer vom Lence-Typ bestimmt. Vom 10-ten Tag an wurde das Volumen des linken Hinterfußes bestimmt. Die prozentuale Hemmung wurde im Verhältnis zu diesem Volumen aus der eintretenden Änderung in der Schwellung des rechten Hinterfußes berechnet."}, "in vivo": {"assay": "in vivo", "conditions": "rat, po"}},
  "data": [
    {"compound": "COc1ccc2cc([C@H](C)C(=O)O)ccc2c1", "note": "[Vergleichs-substanz B, (+)-2-[6'--(Methoxy)-naphth-2'-yl]-propionsäure, reference compound]", "values": [
      {"measurement": "Therapeu-tischer Index LD50-Wert / ED50-Wert", "setting": "[1]", "value": "43,4"},
      {"measurement": "LD50", "setting": "in vivo", "value": 543, "unit": "mg/kg"}
    ]}
  ]
}
